Paper PMC7264160
No constants are given. Whether binding was seen depends on the method and setting. In cells and extracts the contact can be indirect. These calls come from enrichment with a bait or labelling near it, and not all partners need be listed.

B1: Elongation factor 1-alpha (protein, UniProt Q6L202 1-424)
chain: MASEKPHMNLVIIGHVDHGKSTLVGRLLFEHGEIPQHIIDEYKKEAEEKGKATFEFAWVMDRFKEERERGVTIDLTHRKFETDKYYFTIIDAPGHRDFVKNMITGTSQADAAVLVVSAREGEGVMAQTKEHAFLARTLGVPQLIAVVNKMDATQPPYSEKRFNEVKDEITKLLTPIGFKNVPIIPLSGYKGDNIMKPSPNLSWWKGPTLMEALNALQVPAKPVDKPLRLPVEDVYSITGIGTVPVGRIETGVMKVGDKVIFMPANKAGDVKSIEMHHEPMQQAGPGDNIGFNVRGIAKNELKRGDVCGPANNPPTVVKGFTAQIVVLNHPSVIAAGYKPVFHVHTAQVACRIDEIVKTINPKDGTTLKEKPDFIKTGDIAIVKVVPDRALVIEKVSEFPQLGRFAIRDMGMTVAAGQCIDLEKA
B2: Glutamate dehydrogenase (protein, UniProt Q6KZF2 1-415)
chain: MEDLDPFTISRQQLQKAAKVMNLDKQALEILSYPREILQVSIPVKMDSGEVKVFTGFRVHYNNARGPTKGGIRYYEKENLSEVMALSAWMTWKTALLDLPLGGAKGGIICNPKELSQGELERLSRGYIDAIADFIGPDKDIPAPDVYTNPQIMAWMMDEYEKVMRRSSPGVITGKPLAVGGSEGRGDATAKGGMYVLREAARSIGLDLSKAKVAVQGFGNAGQYAVKFATEMFGAKVVAVSDSTGGIYAKDGVNYEKLLEHKRKDGTVMNYDGSENISEEEVLEQDVDVLIPAAIEDQIRGDNASKIKAKIILELANGPTTPEADEILYKNNVLVLPDFLSNAGGVTVSYFEWVQNVTGDYWDEETVYSKLDKKMTAATRSVLETSKRYEVDPRTAAYIIAVKKVADAMKARGWY
B3: Translation initiation factor 5A (protein, UniProt Q6L150 1-129)
chain: MSWTEAEVRELKVGRYILIDDSPCRIVDITMSKPGKHGEAKGRIVAIGVFDNQKHSVVYPVKHKVKVPVITKKNAQVLSIANNEVQLMDSETFETFVIPVDPADLEKIKPGMEVPYWEAMGQRKIMLQN
B4: Homoserine dehydrogenase (protein, UniProt Q6KZ50 1-328)
chain: MRISIIGLGHIGLSVLDIIKSRNDDYRKNNNGISIVSASDSKLTLYNENGLDPGKIINYKKSKRLEEIDYEKIKFDEIFEIKPDVIVDVSPATKDGIRGKNLYINAFEHGIDIVTANKAPLALHWHDIMDSASKNRRIIRYEASVGGGVPLFNLRQFCTMSSRIINFTGLVSSTINYVLNQELSGVGFLDAVKIAQNMGIAETDYSDDTMGLDSARKTVILANSLFNKDITLRDVTYDGIENIDISSMDNEKVYRVVAMIENNGGFHAESKIRAFSRNDFLGMISPLSMAYSMETDINDNINIFENHDGPLQTAAQVVNDVMLLKYKI
B5: Protein secretion chaperonin CsaA (protein, UniProt Q6L208 1-107)
chain: MITYNDFSKIDIRVGIIKEVSDFKEAIKPAYKLKIYFGDIIGYKNSSAQITNYKKDELINKKIIAVVNFPPKQIANFISEVLVLGAITGDGVKLLTPDGGEPGDKIA
B6: 50S ribosomal protein L12 (protein, UniProt Q6L1X7 1-101)
chain: MEYIYGALLLHSAGKEIDENNLKKILEDAGVNADEARLKSLVESMKNINIEDVLKNAAAAPVAAPAPAKEEKKEEKKEEKKEEKKEESEADAMQGLSSLFG

Target: Nascent polypeptide-associated complex (NAC) protein of Picrophilus torridus (Picrophilus torridus)
Assay: affinity purification with mass spectrometry; His6-PtNAC held on Co2+-NTA-agarose beads in a column; 10 ml P. torridus cell lysate added, overnight at 4°C on a rocker; washed with 1X PBS; eluted with 1X PBS with 200 mM imidazole; SDS-PAGE and LC-MS/MS; 5% false-discovery rate cutoff, minimum of two peptides per protein; only the target …

binding, binds:
B1
B2
B3
B4
B5
B6
